Assay results reported in article doi:10.1101/2025.10.13.682074.
These are yes or no findings as the source states them, for the method shown. Some results given as binding are weak or reduced against the parent protein; the word gives no strength.

Target: T1, RNA polymerase α subunit (M. pneumoniae (endogenous in M129-B7 cells)) (UniProt Q50295)
T1 sequence: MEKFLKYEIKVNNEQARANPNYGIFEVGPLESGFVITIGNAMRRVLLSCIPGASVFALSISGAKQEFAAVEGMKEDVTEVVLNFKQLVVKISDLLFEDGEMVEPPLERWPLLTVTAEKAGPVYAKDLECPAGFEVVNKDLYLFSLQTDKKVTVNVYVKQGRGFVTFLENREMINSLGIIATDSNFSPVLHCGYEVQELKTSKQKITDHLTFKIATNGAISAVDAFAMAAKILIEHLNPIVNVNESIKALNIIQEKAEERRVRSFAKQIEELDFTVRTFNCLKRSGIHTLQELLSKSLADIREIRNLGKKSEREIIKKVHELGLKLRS
Experiment: cryo-EM structure

B1: NusA (protein, UniProt P75591 1-540)
chain: MNNQSNHFTNPLLQLIKNVAETKNLAIDDVVLCLKTALAQTYKKHLNYVNVEVNIDFNKGLMQIEQLFDVVDDNNEDYDDFLEMPLSEAKKLNPNLEVGGVLRKPVSLKDIKGDLISKMVLLFNQKINETAFKTVMSDFINEVGQVIEARVEDIDTNKDGGLKGYIVNLETTKGYMPKRELSKGEKLDIGKKYLFVIKEIQKQSSMWPITLSRSDSRLLEFLLNSNTPEIANGTIEIKKMERSPGTKSKVAVISKDPVVDPIAAILGPKGERIRGISEEFNGEIIDIVIWNEDKLKFLVNAVLPAEVVGYNILQDDERDTSIEIVVPANQIANVFGFKGINIRLISNLTGWSSVDVYTEKDAAEQGIEFTRVNFQPQGIFGIKKRRDKISNNPRNNNQQLASDKVFYTSKANVVDDEIIVDLAKQAEAKRVKQIKQEATKPELQLQQELNLEATPKVAAPTPTPAPQPTPAPTKVEPVPPPVSVTPKPIPKVNKPKPVVKPKSVFSITVEADDSKTKPEKSSAKTNTPQTKQTFDNFDDL
binding: binds
